These results are taken from the supplement of paper PMC12889115.

The experiment has as its system Salmonella enterica serovar Typhimurium SL1344. Put plainly: bacterial growth OD600 after 18 h with compound and polymyxin B; higher = more bacterial growth (less inhibition). Conditions: 50 µM, Mueller-Hinton broth.

Molecules are shown by their SMILES. The list shows a part of the results. Values are raw readings; no control value is given beside them.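 In the initial screen, polymyxin B was used at a concentration that permeabilizes Salmonella's outer membrane but not its inner membrane. Maximum growth was set by DMSO wells with or without polymyxin B. Since plates varied, data were ranked per plate, and compounds giving the lowest OD600 advanced as hits.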

For the compound `CCCCC1CN(CCC(=O)NC(C)c2nccs2)Cc2ccccc2O1` (stereo unspecified), the “bacterial growth OD600” value (polymyxin B 0.75 µg/mL) is 0.794.

For `CC(=O)N1CCC(Oc2ccc(Cl)cc2C(=O)N2CCCO2)CC1`, the “bacterial growth OD600” value (polymyxin B 1 µg/mL) is 1.01.

As for `Cn1cc(CN2CCN(c3ccc(Cl)cn3)CC2)c(-c2ccc3c(c2)OCCO3)n1`, the “bacterial growth OD600” value (polymyxin B 1 µg/mL) came out at 0.451.

In the case of `Cc1cc2nc(N3CCC(C(=O)NC45CC6CC(CC(C6)C4)C5)CC3)nc(C)c2cc1C`, the “bacterial growth OD600” value (polymyxin B 0.75 µg/mL) turned out to be 0.734.

In the case of `CC(C)c1ccc(CN2CCCC3(CCN(S(=O)(=O)N(C)C)C3)C2=O)cc1` (stereo unspecified), the “bacterial growth OD600” value (polymyxin B 1 µg/mL) was 0.667.

Take `C[C@@H]1CN(Cc2nc(-c3ccc(C(F)(F)F)cc3)no2)C[C@H](C)O1`: for the setting “polymyxin B 1 µg/mL”, the “bacterial growth OD600” value came to 0.948.

In the case of `O=C(C#Cc1ccccc1)N1CCC(C2(c3cccnc3)NC(=O)N(CCc3cccs3)C2=O)CC1` (stereo unspecified), the “bacterial growth OD600” value (polymyxin B 0.75 µg/mL) turned out to be 0.014.

Consider `CSc1ccc(CC2(CCC(=O)NC(C)c3nc(C)cs3)CCC(=O)N2)cc1` (stereo unspecified), for which the “bacterial growth OD600” value (polymyxin B 0.75 µg/mL) is 0.884.

Take `COc1ccc(CNC(=O)CCC2CCCN(Cc3ccsc3)C2)c(OC)c1` (stereo unspecified): for the setting “polymyxin B 1 µg/mL”, the “bacterial growth OD600” value turned out to be 1.02.

For `CC(=O)NCCNc1ccc(-c2nc(Cc3ccccc3)no2)cn1`, where the note is “polymyxin B 1 µg/mL”, the “bacterial growth OD600” value is 0.963.

As for `COc1ccc(NC(=O)N(C)CC2CCCN(CCc3ccccc3OC)C2)cc1` (stereo unspecified), the “bacterial growth OD600” value (polymyxin B 1 µg/mL) turned out to be 1.15.

Regarding `C=CCO[C@H]1[C@H](NC(=O)COC)c2ccccc2C12CCN(C(=O)CCc1cccs1)CC2`, under “polymyxin B 0.75 µg/mL”, the “bacterial growth OD600” value worked out at 0.896.

For `Cc1c[nH]c(CN(CC2CCN(Cc3ccccc3F)CC2)CC2CCCO2)n1` (stereo unspecified), where the note is “polymyxin B 1 µg/mL”, the “bacterial growth OD600” value came out at 0.95.

In the case of `Cc1nc(C)n(CC(=O)N2CCC3(CC2)CC3C(=O)NCCC2=CCCCC2)n1` (stereo unspecified), the “bacterial growth OD600” value (polymyxin B 0.75 µg/mL) amounted to 1.02.

In the case of `O=C(CCc1ccco1)NC1CCCN(CCc2ccccc2)C1` (stereo unspecified), the “bacterial growth OD600” value (polymyxin B 1 µg/mL) stood at 0.914.

In the case of `COc1cc(=O)n2c(c1C(=O)NCc1ccc3c(c1)OCO3)CCN(C(=O)C1CC13CCCC3)CC2` (stereo unspecified), the “bacterial growth OD600” value (polymyxin B 0.75 µg/mL) came out at 0.814.

Consider `CCC1CN(Cc2ccc3c(c2)OCCO3)Cc2cc(OC)ccc2O1` (stereo unspecified), for which the “bacterial growth OD600” value (polymyxin B 0.75 µg/mL) is 0.696.

As to `Cc1nc2cc(OCc3cc(C(=O)N4CCN(c5ccccn5)CC4)no3)ccc2s1`, the “bacterial growth OD600” value (polymyxin B 1 µg/mL) was determined as 0.008.

As for `O=S(=O)(NC1CCCc2nc(-c3ccccc3)ncc21)c1ccsc1` (stereo unspecified), the “bacterial growth OD600” value (polymyxin B 0.75 µg/mL) stood at 0.746.

For `CCN(Cc1ccccc1)C(=O)c1coc(COc2ccc3c(c2)OCO3)n1`, the “bacterial growth OD600” value (polymyxin B 1 µg/mL) is 0.822.

`COC(=O)[C@@H]1CCCN1C(=O)Cc1ccc(N2CCC(NC3Cc4ccccc4C3)CC2)cc1`: the “bacterial growth OD600” value (polymyxin B 0.75 µg/mL) stood at 0.939.

`O=C1OCCN1CCNc1ccc(-c2nc(Cc3ccc(F)cc3)no2)cn1`: the “bacterial growth OD600” value (polymyxin B 1 µg/mL) stood at 0.924.

`Cc1csc(SCC(=O)N2CCc3c(cnc(C)c3CNC(=O)/C=C/c3cccs3)C2)n1`: under “polymyxin B 0.75 µg/mL”, the “bacterial growth OD600” value turned out to be 0.781.

On to `CCc1ccc(CN(C)C(=O)c2cc(COc3cncc(Cl)c3)on2)cc1`, for which the “bacterial growth OD600” value (polymyxin B 1 µg/mL) was 0.802.

Regarding `O[C@@H]1CN(Cc2ccc(Cl)cc2)CC[C@H]1N1CCN(c2ccccn2)CC1`, where the note is “polymyxin B 0.75 µg/mL”, the “bacterial growth OD600” value was found to be 0.797.

On to `CCOC(=O)N1CCN(C(=O)c2cc(COc3cccc4cccnc34)on2)CC1`, for which, for the setting “polymyxin B 1 µg/mL”, the “bacterial growth OD600” value amounted to 0.861.

Turning to `O=C1CCC(CCC(=O)N2CCC(c3ccccc3Cl)C2)(Cc2cccs2)N1` (stereo unspecified), the “bacterial growth OD600” value (polymyxin B 0.75 µg/mL) is 0.815.

As for `O=C(c1coc(COc2cccc(F)c2F)n1)N1CCCCCC1`, the “bacterial growth OD600” value (polymyxin B 1 µg/mL) came out at 0.678.

As to `Cc1csc(SCC(=O)N2CCC(C(Cc3ccc(F)cc3F)N(C)C(=O)C3CC3)CC2)n1` (stereo unspecified), the “bacterial growth OD600” value (polymyxin B 0.75 µg/mL) amounted to 0.741.

On to `CCO[C@H]1[C@H](NC(=O)CC)c2ccccc2C12CCN(C(=O)c1cc3ccccc3oc1=O)CC2`, for which, for the setting “polymyxin B 0.75 µg/mL”, the “bacterial growth OD600” value came out at 0.789.

With `COc1cccc(-c2cnc(-c3ccncc3)nc2C2CCN(Cc3c(C)[nH]c4ccccc34)CC2)c1`, the “bacterial growth OD600” value (polymyxin B 0.75 µg/mL) stood at 0.695.
